{
  "sequences": {"note": "Chains of the proteins cited; added tags and fusions are not shown. Lines headed by an entry give the natural chain unless they say otherwise; changes in a name come on top.", "UniProt Q8N163": "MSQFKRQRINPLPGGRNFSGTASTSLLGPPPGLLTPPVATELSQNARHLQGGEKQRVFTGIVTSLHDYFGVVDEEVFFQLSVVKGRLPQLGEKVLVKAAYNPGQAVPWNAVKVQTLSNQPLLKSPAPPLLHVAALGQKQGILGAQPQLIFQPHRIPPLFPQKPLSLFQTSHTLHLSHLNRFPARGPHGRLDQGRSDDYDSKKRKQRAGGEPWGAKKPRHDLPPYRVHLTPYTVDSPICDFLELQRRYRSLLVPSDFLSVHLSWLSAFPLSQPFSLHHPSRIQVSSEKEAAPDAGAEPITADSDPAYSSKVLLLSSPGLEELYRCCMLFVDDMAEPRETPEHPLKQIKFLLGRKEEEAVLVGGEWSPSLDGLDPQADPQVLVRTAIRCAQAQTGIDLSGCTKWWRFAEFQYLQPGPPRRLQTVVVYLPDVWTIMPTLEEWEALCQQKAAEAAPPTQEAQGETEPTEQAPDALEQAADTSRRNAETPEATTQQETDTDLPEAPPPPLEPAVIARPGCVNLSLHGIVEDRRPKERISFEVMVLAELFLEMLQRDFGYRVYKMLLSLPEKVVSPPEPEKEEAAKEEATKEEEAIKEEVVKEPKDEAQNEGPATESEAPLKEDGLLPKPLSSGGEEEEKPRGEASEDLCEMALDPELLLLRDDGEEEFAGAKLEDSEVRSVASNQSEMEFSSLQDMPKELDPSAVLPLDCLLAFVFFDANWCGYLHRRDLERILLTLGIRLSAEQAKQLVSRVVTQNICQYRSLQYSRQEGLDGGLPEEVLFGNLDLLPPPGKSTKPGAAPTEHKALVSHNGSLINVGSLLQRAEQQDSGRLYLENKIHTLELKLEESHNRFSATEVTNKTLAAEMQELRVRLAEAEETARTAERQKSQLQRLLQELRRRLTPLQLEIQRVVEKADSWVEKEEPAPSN"},
  "source": "paper doi:10.1101/2022.01.11.475808",
  "key": {"[1]": {"target": "T1, GST-SIAH2 (human) (UniProt O43255)", "T1 sequence": "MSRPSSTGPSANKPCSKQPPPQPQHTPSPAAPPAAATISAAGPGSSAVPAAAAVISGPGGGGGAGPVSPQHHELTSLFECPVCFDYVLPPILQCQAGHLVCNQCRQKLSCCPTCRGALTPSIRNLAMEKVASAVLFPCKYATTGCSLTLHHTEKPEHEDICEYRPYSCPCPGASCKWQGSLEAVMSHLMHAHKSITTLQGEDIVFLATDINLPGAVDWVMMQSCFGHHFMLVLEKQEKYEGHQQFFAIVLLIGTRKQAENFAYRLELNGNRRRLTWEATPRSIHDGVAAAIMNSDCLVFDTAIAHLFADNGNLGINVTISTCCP", "assay": "pull-down"}, "[2]": {"target": "His-DBC1 (human) (UniProt Q8N163)", "assay": "pull-down"}, "[3]": {"target": "endogenous DBC1 (human (endogenous in MDA-MB-231)) (UniProt Q8N163)", "assay": "co-IP"}, "[4]": {"target": "Myc-DBC1 (human) (UniProt Q8N163)", "assay": "co-IP"}},
  "note": "These are yes or no findings as the source states them, for the method shown. For some of these results: In cells and extracts the contact can be indirect. Some results given as binding are weak or reduced against the parent protein; the word gives no strength. For some of these results: Tags and fused reporters may be left off the sequences shown.",
  "data": [
    {"molecule": "C-terminal half of His-DBC1 (462-923) (from UniProt Q8N163 462-923) (domain or fragment)", "values": [
      {"measurement": "binding", "setting": "[1]", "value": "no binding"}
    ]},
    {"molecule": "endogenous OTUD5 (enzyme, UniProt Q96G74 1-571) MTILPKKKPPPPDADPANEPPPPGPMPPAPRRGGGVGVGGGGTGVGGGDRDRDSGVVGARPRASPPPQGPLPGPPGALHRWALAVPPGAVAGPRPQQASPPPCGGPGGPGGGPGDALGAAAAGVGAAGVVVGVGGAVGVGGCCSGPGHSKRRRQAPGVGAVGGGSPEREEVGAGYNSEDEYEAAAARIEAMDPATVEQQEHWFEKALRDKKGFIIKQMKEDGACLFRAVADQVYGDQDMHEVVRKHCMDYLMKNADYFSNYVTEDFTTYINRKRKNNCHGNHIEMQAMAEMYNRPVEVYQYSTGTSAVEPINTFHGIHQNEDEPIRVSYHRNIHYNSVVNPNKATIGVGLGLPSFKPGFAEQSLMKNAIKTSEESWIEQQMLEDKKRATDWEATNEAIEEQVARESYLQWLRDQEKQARQVRGPSQPRKASATCSSATAAASSGLEEWTSRSPRQRSSASSPEHPELHAELGMKPPSPGTVLALAKPPSPCAPGTSSQFSAGADRATSPLVSLYPALECRALIQQMSPSAFGLNDWDDDEILASVLAVSQQEYLDSMKKNKVHRDPPPDKS", "values": [
      {"measurement": "binding", "setting": "[2]", "value": "binds"},
      {"measurement": "binding", "setting": "[3]", "value": "binds"}
    ]},
    {"molecule": "Flag-OTUD5 (enzyme, UniProt Q96G74 1-571) MTILPKKKPPPPDADPANEPPPPGPMPPAPRRGGGVGVGGGGTGVGGGDRDRDSGVVGARPRASPPPQGPLPGPPGALHRWALAVPPGAVAGPRPQQASPPPCGGPGGPGGGPGDALGAAAAGVGAAGVVVGVGGAVGVGGCCSGPGHSKRRRQAPGVGAVGGGSPEREEVGAGYNSEDEYEAAAARIEAMDPATVEQQEHWFEKALRDKKGFIIKQMKEDGACLFRAVADQVYGDQDMHEVVRKHCMDYLMKNADYFSNYVTEDFTTYINRKRKNNCHGNHIEMQAMAEMYNRPVEVYQYSTGTSAVEPINTFHGIHQNEDEPIRVSYHRNIHYNSVVNPNKATIGVGLGLPSFKPGFAEQSLMKNAIKTSEESWIEQQMLEDKKRATDWEATNEAIEEQVARESYLQWLRDQEKQARQVRGPSQPRKASATCSSATAAASSGLEEWTSRSPRQRSSASSPEHPELHAELGMKPPSPGTVLALAKPPSPCAPGTSSQFSAGADRATSPLVSLYPALECRALIQQMSPSAFGLNDWDDDEILASVLAVSQQEYLDSMKKNKVHRDPPPDKS", "values": [
      {"measurement": "binding", "setting": "[4]", "value": "binds"}
    ]}
  ]
}
